Results published in the supplement of paper PMC10331698.
± gives the standard deviation of the averaged measurements. Most values lie at the level of the controls, where differences are scatter.

Experiments:
Test in all cases: level (log10 ratio to DMSO vehicle control); higher = higher biomarker level / cell amount than vehicle control
[1] = compound: OCCC(F)(F)C(F)(F)C(F)(F)C(F)(F)C(F)(F)C(F)(F)F [6:2 Fluorotelomer alcohol]; conditions: 2200 nM; in DMSO
Procedure: (§1)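 BioMAP Diversity Plus panel of 12 human primary cell co-culture systems (3C, 4H, LPS, SAg, BT, BF4T, BE3C, CASM3C, HDF3CGF, KF3CT, MyoF, Mphg). Compounds were added 1 h before stimulation and left for 24 h (MyoF 48 h; BT 72 h for soluble read-outs or 6 d for IgG). Biomarkers were read by ELISA, cytotoxicity by SRB, PBMC viability and proliferation by Alamar Blue. Each well value was divided by the mean of 8 DMSO control wells on the same plate and log10 transformed; duplicate blinded samples were tested at 4 concentrations.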

[2] = compound: CN(C(=O)C(F)(F)C(F)(F)C(F)(F)F)[Si](C)(C)C [N-Methyl-N-trimethylsilylheptafluorobutyramide]; conditions: 2200 nM; in DMSO
Procedure: as §1

[3] = compound: NC(=O)C(F)(F)C(F)(F)C(F)(F)F [Heptafluorobutyramide]; conditions: 2200 nM; in DMSO
Procedure: as §1

[4] = compound: CCCCCCCCC(F)(F)C(F)(F)C(F)(F)C(F)(F)C(F)(F)C(F)(F)F [1-(Perfluorohexyl)octane]; conditions: in DMSO
Procedure: as §1

[5] = compound: FC(F)(F)C(F)(F)C(F)(F)C(F)(F)C(F)(F)C(F)(F)CC1CO1 [3-(Perfluorohexyl)-1,2-epoxypropane]; conditions: 2200 nM; in DMSO
Procedure: as §1

[6] = compound: CCN(CCO)S(=O)(=O)C(F)(F)C(F)(F)C(F)(F)C(F)(F)C(F)(F)C(F)(F)C(F)(F)C(F)(F)F [N-Ethyl-N-(2-hydroxyethyl)perfluorooctanesulfonamide]; conditions: in DMSO
Procedure: as §1

[7] = compound: NCC(F)(F)C(F)(F)C(F)(F)C(F)(F)C(F)(F)C(F)(F)C(F)(F)F [1H,1H-Perfluorooctylamine]; conditions: 2200 nM; in DMSO
Procedure: as §1

[8] = compound: Cc1ccc(S(=O)(=O)OCC(F)(F)C(F)(F)C(F)(F)C(F)(F)C(F)(F)C(F)F)cc1 [1H,1H,7H-Perfluoroheptyl 4-methylbenzenesulfonate]; conditions: 2200 nM; in DMSO
Procedure: as §1

[9] = compound: OCC(F)(F)C(F)(F)C(F)(F)F [1H,1H-Heptafluorobutanol]; conditions: 2200 nM; in DMSO
Procedure: as §1

[10] = compound: O=C(O)C(F)(F)C(F)(F)C(F)(F)C(F)(F)C(F)(F)C(F)(F)C(F)(F)C(F)(F)C(F)(F)C(F)F [11-H-Perfluoroundecanoic acid]; conditions: 2200 nM; in DMSO
Procedure: as §1

[11] = compound: O=C(O)C(F)(F)C(F)(F)C(F)(F)OC(F)(F)F [Perfluoro(4-methoxybutanoic) acid]; conditions: 2200 nM; in DMSO
Procedure: as §1

[12] = compound: O=C(O)C(F)(F)C(F)(F)C(F)(F)C(F)(F)C(=O)O [Octafluoroadipic acid]; conditions: 2200 nM; in DMSO
Procedure: as §1

[13] = compound: O=S(=O)(O)CCC(F)(F)C(F)(F)C(F)(F)C(F)(F)C(F)(F)C(F)(F)C(F)(F)C(F)(F)F [8:2 Fluorotelomer sulfonic acid]; conditions: in DMSO
Procedure: as §1

[14] = compound: O=C(O)C(F)(F)C(F)(F)C(F)(F)C(F)(F)C(F)(F)C(F)(F)F [Perfluoroheptanoic acid]; conditions: in DMSO
Procedure: as §1

[15] = compound: CC(C)(C)C(=O)CC(=O)C(F)(F)C(F)(F)C(F)(F)F [(Heptafluorobutanoyl)pivaloylmethane]; conditions: 2200 nM; in DMSO
Procedure: as §1

[16] = compound: O=C(O)C(F)(F)C(F)(F)C(F)(F)C(F)(F)F [Perfluoropentanoic acid]; conditions: in DMSO
Procedure: as §1

| Test System | level (log10) [1] | level (log10) [2] | level (log10) [3] | level (log10) ([4]; 740 nM) | level (log10) ([4]; 2200 nM) | level (log10) [5] | level (log10) ([6]; 2200 nM) | level (log10) ([6]; 6700 nM) | level (log10) ([6]; 20000 nM) | level (log10) [7] | level (log10) [8] | level (log10) [9] | level (log10) [10] | level (log10) [11] | level (log10) [12] | level (log10) ([13]; 2200 nM) | level (log10) ([13]; 6700 nM) | level (log10) ([13]; 20000 nM) | level (log10) ([13]; 60000 nM) | level (log10) ([14]; 2200 nM) | level (log10) ([14]; 6700 nM) | level (log10) ([14]; 20000 nM) | level (log10) ([14]; 60000 nM) | level (log10) [15] | level (log10) ([16]; 2200 nM) | level (log10) ([16]; 6700 nM) | level (log10) ([16]; 20000 nM) | level (log10) ([16]; 60000 nM) |
| --- | --- | --- | --- | --- | --- | --- | --- | --- | --- | --- | --- | --- | --- | --- | --- | --- | --- | --- | --- | --- | --- | --- | --- | --- | --- | --- | --- | --- |
| lMphg:CCL2/MCP-1 | 0.004 ± 0.018 | -0.0035 ± 0.016 | 0.009 ± 0.021 | 0.005 ± 0.031 | -0.011 ± 0.025 | 0.003 ± 0.0014 | -0.0055 ± 0.033 | 0.007 ± 0.034 | 0.002 ± 0.023 | -0.0215 ± 0.005 | -0.007 ± 0.045 | -0.0055 ± 0.035 | -0.003 ± 0.021 | 0.0175 ± 0.037 | 0.0205 ± 0.03 | -0.02 ± 0.0099 | 0.0075 ± 0.019 | -0.019 ± 0.016 | 0.0155 ± 0.00071 | -0.0205 ± 0.05 | -0.0365 ± 0.021 | -0.019 ± 0.0042 | 0.027 ± 0.023 | -0.013 ± 0.02 | 0.002 ± 0.0099 | 0.038 ± 0.0028 | 0.0155 ± 0.03 | 0.0015 ± 0.035 |
| lMphg:CCL3/MIP-1alpha | -0.004 ± 0.014 | 0.008 ± 0.014 | -0.006 ± 0.034 | 0.0185 ± 0.016 | -0.0065 ± 0.013 | -0.0165 ± 0.022 | 0.017 ± 0.085 | 0.0325 ± 0.035 | 0.112 ± 0.013 | 0.0105 ± 0.013 | 0.0245 ± 0.023 | 0.016 ± 0.016 | -0.0125 ± 0.00071 | -0.013 ± 0.034 | -0.001 ± 0.018 | 0.0025 ± 0.018 | 0.0035 ± 0.03 | 0.0095 ± 0.026 | 0.0065 ± 0.032 | -0.006 ± 0.0014 | -0.0265 ± 0.013 | -0.0075 ± 0.0078 | 0.018 ± 0.017 | -0.02 ± 0.0042 | -0.026 ± 0.018 | 0.008 ± 0.059 | -0.006 ± 0.055 | 0.006 ± 0.055 |
| lMphg:CD40 | -0.015 ± 0.024 | -0.0005 ± 0.052 | -0.009 ± 0.0099 | -0.013 ± 0.0014 | -0.0015 ± 0.021 | -0.0145 ± 0.021 | -0.011 ± 0.0057 | -0.025 ± 0.017 | -0.0335 ± 0.018 | -0.0245 ± 0.042 | -0.0075 ± 0.00071 | 0 ± 0.017 | -0.0265 ± 0.018 | -0.0365 ± 0.025 | -0.0475 ± 0.012 | -0.03 ± 0.034 | -0.026 ± 0.023 | -0.052 ± 0.0028 | -0.0995 ± 0.019 | -0.0285 ± 0.028 | -0.0045 ± 0.018 | -0.0265 ± 0.012 | -0.028 ± 0.027 | 0.024 ± 0.04 | -0.021 ± 0.0014 | 0.0225 ± 0.0092 | -0.0085 ± 0.0064 | 0.0175 ± 0.0078 |
| lMphg:CD62E/E-Selectin | 0.003 ± 0.016 | -0.015 ± 0.048 | 0.03 ± 0.042 | -0.0235 ± 0.026 | 0.006 ± 0.03 | -0.0175 ± 0.0078 | 0.0175 ± 0.019 | 0.0935 ± 0.0078 | 0.14 ± 0.0099 | 0.0075 ± 0.03 | -0.0155 ± 0.03 | 0.0085 ± 0.016 | -0.025 ± 0.054 | -0.014 ± 0.04 | -0.01 ± 0.058 | 0.0005 ± 0.029 | 0.0165 ± 0.0092 | 0.048 ± 0.0042 | 0.103 ± 0.0057 | -0.015 ± 0.047 | -0.026 ± 0.0028 | 0 ± 0.024 | 0.025 ± 0.018 | -0.0115 ± 0.0092 | 0 ± 0.0042 | 0.012 ± 0.0057 | -0.008 ± 0.014 | 0.003 ± 0.042 |
